Data from US7544687B2, “Substituted α-piperazinyl phenylpropionic acid derivatives as hPPAR α and/or hPPAR γ agonists” (Beijing Molecule Science and Technology Co., Ltd, priority 2004, dated 2009).
For at least one compound, name, drawing or mass did not settle the structure.

Tests used:
Human PPARα = target: T1, Human PPARα (Homo sapiens, UniProt Q07869); experiment: Activation of human PPARα, GAL4 chimeric receptor luciferase reporter assay in transiently transfected 293-T cells; assay type: cell-based; conditions: compounds 10 μM; for Photon number (×10^4): luciferase 24 h after administration; for Increased multiple vs control: vs DMSO control
T1 construct: expressed in transfected cells; host or cells: 293-T cells, transient transfection
T1 sequence (Q07869 239-466 limits assumed): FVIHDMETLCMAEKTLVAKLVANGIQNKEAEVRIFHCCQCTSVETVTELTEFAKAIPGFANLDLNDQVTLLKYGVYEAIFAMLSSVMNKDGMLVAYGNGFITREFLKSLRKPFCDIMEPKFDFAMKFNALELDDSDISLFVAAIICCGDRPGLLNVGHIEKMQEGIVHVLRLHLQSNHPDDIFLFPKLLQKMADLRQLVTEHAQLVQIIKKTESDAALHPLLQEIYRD
Method: (§1) The compounds were screened with respect to their functional effect of instantaneous transfection in 293-T cells, so that their capabilities of activating PPAR subtypes were determined. A chimeric receptor system as established in advance was used to compare the influence of receptor subtypes on the transcription activity of same target gene. Human PPARα and PPARγ ligand-binding domains were fused respectively with yeast transcription factor GAL4 DNA-binding domains, and then linked to expression vector pM of mammal, to thereby construct two plasmids pM-hPPARα/GAL4 and pM-PPARγ/GAL4. GAL4 DNA-binding area was linked to pB4-tk-luc, to thereby construct pB4-RES-tk-luc (a firefly luciferase reporter gene comprising GAL4 DNA-binding site). pRL-CMV-Rluc was used as an internal control to normalize transfection efficiency and endogenous influence.
293-T cells were incubated in a 48-well plate at a cell density of 2-4×10^4/well, using a phenol red-free and antibiotic-free 1640 medium containing 10% defatted fetal calf serum (FCS). After culturing for 48 h, the medium was replaced with a phenol red-free and antibiotic-free 1640 medium containing 5% defatted FCS, and then three plasmids pM-hPPAR/GAL4, pB4-RES-tk-luc and pRL-CMV-Rluc pertaining to two subtypes were respectively co-transfected into the 293-T cells. The strength of luciferase was measured at the time of 24 h after administration, with 0.2% DMSO as a blank control.

Human PPARγ = target: T2, Human PPARγ (Homo sapiens, UniProt P37231); experiment: Activation of human PPARγ, GAL4 chimeric receptor luciferase reporter assay in transiently transfected 293-T cells; assay type: cell-based; conditions: compounds 10 μM
T2 construct: expressed in transfected cells; host or cells: 293-T cells, transient transfection
T2 sequence (P37231 238-503 limits assumed): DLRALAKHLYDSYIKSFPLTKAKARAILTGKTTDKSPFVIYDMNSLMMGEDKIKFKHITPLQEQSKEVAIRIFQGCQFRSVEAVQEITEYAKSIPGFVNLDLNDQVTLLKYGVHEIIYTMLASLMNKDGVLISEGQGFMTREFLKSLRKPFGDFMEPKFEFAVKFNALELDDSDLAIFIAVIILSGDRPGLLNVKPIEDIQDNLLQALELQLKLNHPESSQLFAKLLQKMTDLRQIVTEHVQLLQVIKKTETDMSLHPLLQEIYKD
Text: as §1, with “A” for “The compounds were screened with respect to their functional effect of instantaneous transfection in 293-T cells, so that their capabilities of activating PPAR subtypes were determined. A”
The strength of luciferase was measured at the time of 24 h after administration, with 0.2% DMSO as a blank control.

Structure (SMILES) | Photon number (×10^4) (Human PPARα) | Increased multiple vs control (Human PPARα) | Photon number (×10^4) (Human PPARγ; luciferase 24 h after administration) | Increased multiple vs control (Human PPARγ; vs control)
Cc1oc(-c2ccccc2)nc1CCOc1ccc(C[C@@H](C(=O)O)N2CCN(S(=O)(=O)c3ccccc3F)CC2)cc1 [Example 3, (2S)-2-[4-(2-fluoro-benzenesulfonyl)-piperazin-1-yl]-3-{4-[2-(5-methyl-2-phenyl-1,3-oxazol-4-yl)-ethoxy]-phenyl}-propionic acid] | 5.3 ×10^4 | 2.5 |  | 
Cc1oc(-c2ccccc2)nc1CCOc1ccc(C[C@@H](C(=O)O)N2CCN(S(=O)(=O)c3ccccc3[N+](=O)[O-])CC2)cc1 [Example 6, (2S)-2-[4-(2-nitro-benzenesulfonyl)-piperazin-1-yl]-3-{4-[2-(5-methyl-2-phenyl-1,3-oxazol-4-yl)-ethoxy]-phenyl}-propionic acid] | 26.3 ×10^4 | 12.5 | 21.0 ×10^4 | 15.0
